Molecules are shown by their SMILES. Out of some 1,900 compounds screened, about 250 (13%) were called active. Roughly 4% stayed inconclusive and do not appear here.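 How the source made its calls: active means fitted curve reaches 40% rescue activity at or below the top valid dose, in every test run; inconclusive means test runs disagree, some active and some inactive; inactive means every run misses the threshold or moves the wrong way.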 This is a selection; strong and weak results do not stand in their true shares. Measured potencies and affinities stand elsewhere.

49 compounds from PubChem BioAssay AID624405 (Broad Institute, 2012) can be followed below.

A short description of the test: rescue of simvastatin-induced ATP loss – cell-based, C2C12 myotubes, ATP luminescence, cherry pick, dose response (AID 624405).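 Further: myotubes are challenged with simvastatin at 10 µM to lower ATP.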 The following applies: 48 h, scaled: DMSO wells 0, geranylgeraniol wells 100; at 19.5 µM (top of the series) unless noted.
Consider `O=C(NCCCNCCCNC(=O)c1ccccn1)c1ccccn1`, for which the rescue activity (ATP increase) was inactive: 0.565%. Consider `C[C@@H]1CN([C@@H](C)CO)C(=O)c2cc(NS(=O)(=O)c3ccc(F)cc3)ccc2O[C@H]1CN(C)Cc1ccc(-c2ccccc2)cc1`, for which the rescue activity (ATP increase) was inactive: 7.63% [at 21 µM]. Consider `C[C@@H]1CN([C@H](C)CO)C(=O)c2cc(NS(C)(=O)=O)ccc2O[C@@H](C)CCCCO[C@@H]1CN(C)S(=O)(=O)c1ccc(Cl)cc1`, for which the rescue activity (ATP increase) is inactive: 15.7%. For the compound `Cc1nn(C)cc1CNC(=O)Nc1cccc(Cl)c1`, the rescue activity (ATP increase) was inactive: -9.74%. The result for `O=C(CC1C(=O)OCN1C(=O)OCc1ccccc1)OCC(=O)c1ccccc1` (centres undefined) reads inactive: -14.1%; that for `C[C@@H]1CCCCO[C@H](CN(C)C(=O)Nc2cccc3ccccc23)[C@H](C)CN([C@@H](C)CO)C(=O)c2cc(N(C)C)ccc2O1`, inactive: -13.6%. With `C[C@H](CO)N1C[C@H](C)[C@H](CN(C)C(=O)Nc2cccc3ccccc23)Oc2ccc(NC(=O)Nc3ccc(C(F)(F)F)cc3)cc2CC1=O` the figure was inactive: 27%; with `COCCNC(=O)Nc1ccc2nc(-c3cccs3)c(-c3cccs3)nc2c1`, inactive: -64.5%. For `C[C@H](CO)NC(=O)[C@@H]1C[C@H]1[C@@H](NP(=O)(c1ccccc1)c1ccccc1)c1ccccc1`, the rescue activity (ATP increase) was inactive: 26.4%. Consider `O=C(COc1ccccc1F)NCCc1ccc2c(c1)OCCO2`, for which the rescue activity (ATP increase) was inactive: 26.7%.

`CCCCCn1c(CCC(=O)Oc2ccccc2OC)nc2c1c(=O)[nH]c(=O)n2CCCC`: the rescue activity (ATP increase) is inactive: 6.17%. For the compound `C[C@H]1CN([C@@H](C)CO)C(=O)c2cccc(NC(=O)Nc3ccc4c(c3)OCO4)c2O[C@@H]1CN(C)CC1CCCCC1`, the rescue activity (ATP increase) was inactive: 28.6%.

In the case of `CC(C)(C)C(=O)COC(=O)CNC(=O)c1ccc(Oc2ccccc2)cc1`, the rescue activity (ATP increase) is inactive: 0.797%. Regarding `Cc1ccc(S(=O)(=O)Nc2ccc3c(c2)CC(=O)N([C@H](C)CO)C[C@@H](C)[C@@H](CN(C)Cc2ccc(C(F)(F)F)cc2)O3)cc1`, the rescue activity (ATP increase) was inactive: 2% [at 21 µM]. With `COc1cccc(-n2nnnc2SCC(=O)NCCc2ccccc2)c1` the figure was inactive: 19.2%; with `COc1ccc(S(=O)(=O)Nc2ccc3c(c2)C(=O)N([C@@H](C)CO)C[C@@H](C)[C@@H](CN(C)S(=O)(=O)c2cccs2)OCCCC[C@H](C)O3)cc1`, inactive: 20.6%.

With `Cc1cc2c(c(=O)n1Cc1cccnc1)C(c1ccc(F)cc1)C(C#N)=C(N)O2` (centres undefined), the rescue activity (ATP increase) was inactive: -9.08%. In the case of `CCn1c(SCC(=O)N2CCCC2)nnc1-c1ccc(N)cc1`, the rescue activity (ATP increase) was inactive: -11.8%.

`COc1ccc(C(=O)Nc2n[nH]c(-c3ccncc3)n2)cc1`: the rescue activity (ATP increase) was inactive: 3.41%.

Take `O=C(Nc1ccccc1Cl)N1C[C@@H]2[C@H](c3ccccc31)[C@H](CO)N2Cc1ccccc1`: the rescue activity (ATP increase) was inactive: 0.273%. The result for `COc1ccc(S(=O)(=O)Nc2cccc3c2O[C@H](CN(C)C)[C@@H](C)CN([C@H](C)CO)C3=O)cc1` reads inactive: -3.17%; that for `C[C@H](CO)N1C[C@H](C)[C@@H](CN(C)Cc2ccc(Oc3ccccc3)cc2)Oc2ccc(NC(=O)Nc3ccccc3)cc2CC1=O`, inactive: 20.1%; that for `C[C@H]1CCCCO[C@@H](CN(C)S(=O)(=O)c2cccs2)[C@@H](C)CN([C@@H](C)CO)C(=O)c2cc(NC(=O)Nc3ccc(F)cc3)ccc2O1`, inactive: -14.9%. The result for `C[C@H]1CN([C@@H](C)CO)C(=O)c2cc(NC(=O)Cc3cn(C)c4ccccc34)ccc2O[C@H]1CN(C)S(=O)(=O)c1cccs1` reads inactive: 21.2%; that for `O=C(Nc1cccc(C(F)(F)F)c1)C1CCN(S(=O)(=O)c2cnc[nH]2)CC1`, inactive: -67%; that for `CCc1nc(SCC(=O)Nc2cc(C)on2)c2c(C)c(C)sc2n1`, inactive: -7.85%.

In the case of `C[C@H]1CN([C@@H](C)CO)C(=O)c2cccc(NS(=O)(=O)c3cccs3)c2O[C@@H]1CN(C)Cc1ccc(Oc2ccccc2)cc1`, the rescue activity (ATP increase) was inactive: 10.6%. The result for `C[C@@H]1CCCCO[C@@H](CN(C)Cc2ccc(C(F)(F)F)cc2)[C@H](C)CN([C@@H](C)CO)C(=O)c2cc(NC(=O)c3ccncc3)ccc2O1` reads inactive: 24.7%; that for `COC(=O)c1cn(Cc2ccc(C(F)(F)F)cc2)cc(F)c1=O`, inactive: -11.3%; that for `C[C@H]1CN([C@@H](C)CO)C(=O)c2cc(C#Cc3cccc(F)c3)cnc2O[C@@H]1CN(C)C(=O)C1CCCCC1`, inactive: 24.4%. With `C=C(C)COc1ccc2oc(C)c(C(=O)OCCOC)c2c1`, the rescue activity (ATP increase) was inactive: 7.84%. The result for `Cc1noc(C)c1NC(=O)Nc1ccc2c(c1)C(=O)N([C@H](C)CO)C[C@@H](C)[C@H](CN(C)C(=O)Nc1ccccc1)OCCCC[C@@H](C)O2` reads inactive: 2.09%. `CN1C[C@@H]2[C@H](c3ccccc31)[C@H](CO)N2Cc1ccccc1Cl`: the rescue activity (ATP increase) was inactive: -6.34%. For `Cc1csc2ncc(C(=O)Nc3cccc(C(F)(F)F)c3)c(=O)n12`, the rescue activity (ATP increase) is inactive: -19.3%.

Turning to `OC[C@H]1[C@H]2c3ccccc3NC[C@H]2N1Cc1ccccc1Cl`, the rescue activity (ATP increase) was inactive: -8.25%. For the compound `Cc1noc(C)c1NC(=O)Nc1cccc2c1O[C@@H](CN(C)Cc1ccc(-c3ccccc3)cc1)[C@H](C)CN([C@@H](C)CO)C2=O`, the rescue activity (ATP increase) was inactive: 8.68%. Consider `O=C(O)C1CC=CCC1C(=O)NCCc1ccccc1` (centres undefined), for which the rescue activity (ATP increase) was inactive: 12%. With `COc1ccc(S(=O)(=O)Nc2ccc3c(c2)C(=O)N([C@@H](C)CO)C[C@@H](C)[C@@H](CN(C)S(=O)(=O)c2ccc(F)cc2)OCCCC[C@@H](C)O3)cc1` the figure was inactive: 33.6%. The result for `C=CCSc1nnc(-c2cc3c(s2)-c2ccccc2CC3)o1` reads inactive: 6.74%; that for `CCOC(=O)C(=CNCC(=O)OC)C(=O)OCC`, inactive: 22.5%; that for `Clc1ccc(Sc2oc(/C=N/n3cnnc3)cc2Br)cc1`, inactive: 56%. On to `Cc1noc(C)c1S(=O)(=O)Nc1ccc2c(c1)C(=O)N([C@@H](C)CO)C[C@H](C)[C@H](CN(C)S(=O)(=O)c1ccc(Cl)cc1)OCCCC[C@@H](C)O2`, for which the rescue activity (ATP increase) was inactive: 17%. Regarding `Fc1ccc(CSc2ncnc3nc[nH]c23)cc1`, the rescue activity (ATP increase) is inactive: -44.9% [at 10 µM]. As to `COc1ccc2c(c1)N(C)C(=O)CC(c1ccccc1)=N2`, the rescue activity (ATP increase) was inactive: -4.84%. The result for `O=C(CN1CCN(c2ccccn2)CC1)Nc1ccc(F)cc1` reads inactive: -68.8% [at 10 µM]. The result for `COc1ccc(S(=O)(=O)Nc2ccc3c(c2)C(=O)N([C@@H](C)CO)C[C@H](C)[C@@H](CN(C)S(=O)(=O)c2ccc(F)cc2)OCCCC[C@@H](C)O3)cc1` reads inactive: 17.1%; that for `Cc1cc(NC(=O)COC(=O)C2CCN(S(=O)(=O)c3c(Cl)cccc3Cl)CC2)no1`, inactive: 26.2%. `C[C@H]1CN([C@@H](C)CO)C(=O)c2cc(C3=CCCCC3)cnc2O[C@@H]1CN(C)Cc1ccccc1F`: the rescue activity (ATP increase) was inactive: 14.8%. Consider `Cc1cc(Oc2ccccc2)nc(-c2ccccc2O)n1`, for which the rescue activity (ATP increase) is inactive: -24.2%.
